In patent US20260183295A1, “METHODS AND COMPOSITIONS FOR TREATING CANCER” (Onconova Therapeutics, Inc., priority 2022, published 2026):
At least one compound was matched to its structure with a doubt left.

Tests used:
Caspase 3/7 [1] = assay: Caspase 3/7 Glo assay, MDA-MB-231 cells, 24 hours; format: cell-based; conditions: without zVAD-FMK, relative to DMSO (FIG. 26)
Procedure: To determine how Compound 1 induces cell death, Caspase 3/7 activity was measured using the Caspase 3/7 Glo assay.
The effect of zVAD-FMK treatment on Caspase 3/7 activity was assessed.

Caspase 3/7 [2] = assay: Caspase 3/7 Glo assay with or without bafilomycin A1, MDA-MB-231 cells, 2 days; format: cell-based; conditions: 5 μM
Text: FIGS. 34 and 35 show Caspase 3/7 activity as measured by the Caspase 3/7 Glo assay. […] The effect was enhanced by co-treatment with bafilomycin A1 cotreatment.

CC(=O)c1c(C)c2cnc(Nc3ccc(N4CCNCC4)cn3)nc2n(C2CCCC2)c1=O [Comparator 1, palbociclib]
Caspase 3/7 activity (Caspase 3/7 [1]): not increased
effect of bafilomycin A1 cotreatment on Caspase 3/7 activity (Caspase 3/7 [2]): did not increase
